Results are given in words; binding and its absence hold for the method and conditions named. In cells and extracts the contact can be indirect. Some binding calls cover weakened binding; strength is not graded here. Tags and fused reporters may be left off the sequences shown.

The chains behind the UniProt entries cited, without tags or fusion partners.
UniProt Q07955: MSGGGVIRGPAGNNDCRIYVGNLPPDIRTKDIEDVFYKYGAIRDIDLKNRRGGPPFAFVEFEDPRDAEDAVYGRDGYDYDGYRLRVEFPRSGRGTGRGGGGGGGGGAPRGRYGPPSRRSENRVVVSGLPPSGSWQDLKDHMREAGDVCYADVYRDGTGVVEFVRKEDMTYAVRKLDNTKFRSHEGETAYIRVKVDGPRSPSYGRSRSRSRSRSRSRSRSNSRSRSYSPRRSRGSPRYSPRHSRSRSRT
UniProt Q9UQ35: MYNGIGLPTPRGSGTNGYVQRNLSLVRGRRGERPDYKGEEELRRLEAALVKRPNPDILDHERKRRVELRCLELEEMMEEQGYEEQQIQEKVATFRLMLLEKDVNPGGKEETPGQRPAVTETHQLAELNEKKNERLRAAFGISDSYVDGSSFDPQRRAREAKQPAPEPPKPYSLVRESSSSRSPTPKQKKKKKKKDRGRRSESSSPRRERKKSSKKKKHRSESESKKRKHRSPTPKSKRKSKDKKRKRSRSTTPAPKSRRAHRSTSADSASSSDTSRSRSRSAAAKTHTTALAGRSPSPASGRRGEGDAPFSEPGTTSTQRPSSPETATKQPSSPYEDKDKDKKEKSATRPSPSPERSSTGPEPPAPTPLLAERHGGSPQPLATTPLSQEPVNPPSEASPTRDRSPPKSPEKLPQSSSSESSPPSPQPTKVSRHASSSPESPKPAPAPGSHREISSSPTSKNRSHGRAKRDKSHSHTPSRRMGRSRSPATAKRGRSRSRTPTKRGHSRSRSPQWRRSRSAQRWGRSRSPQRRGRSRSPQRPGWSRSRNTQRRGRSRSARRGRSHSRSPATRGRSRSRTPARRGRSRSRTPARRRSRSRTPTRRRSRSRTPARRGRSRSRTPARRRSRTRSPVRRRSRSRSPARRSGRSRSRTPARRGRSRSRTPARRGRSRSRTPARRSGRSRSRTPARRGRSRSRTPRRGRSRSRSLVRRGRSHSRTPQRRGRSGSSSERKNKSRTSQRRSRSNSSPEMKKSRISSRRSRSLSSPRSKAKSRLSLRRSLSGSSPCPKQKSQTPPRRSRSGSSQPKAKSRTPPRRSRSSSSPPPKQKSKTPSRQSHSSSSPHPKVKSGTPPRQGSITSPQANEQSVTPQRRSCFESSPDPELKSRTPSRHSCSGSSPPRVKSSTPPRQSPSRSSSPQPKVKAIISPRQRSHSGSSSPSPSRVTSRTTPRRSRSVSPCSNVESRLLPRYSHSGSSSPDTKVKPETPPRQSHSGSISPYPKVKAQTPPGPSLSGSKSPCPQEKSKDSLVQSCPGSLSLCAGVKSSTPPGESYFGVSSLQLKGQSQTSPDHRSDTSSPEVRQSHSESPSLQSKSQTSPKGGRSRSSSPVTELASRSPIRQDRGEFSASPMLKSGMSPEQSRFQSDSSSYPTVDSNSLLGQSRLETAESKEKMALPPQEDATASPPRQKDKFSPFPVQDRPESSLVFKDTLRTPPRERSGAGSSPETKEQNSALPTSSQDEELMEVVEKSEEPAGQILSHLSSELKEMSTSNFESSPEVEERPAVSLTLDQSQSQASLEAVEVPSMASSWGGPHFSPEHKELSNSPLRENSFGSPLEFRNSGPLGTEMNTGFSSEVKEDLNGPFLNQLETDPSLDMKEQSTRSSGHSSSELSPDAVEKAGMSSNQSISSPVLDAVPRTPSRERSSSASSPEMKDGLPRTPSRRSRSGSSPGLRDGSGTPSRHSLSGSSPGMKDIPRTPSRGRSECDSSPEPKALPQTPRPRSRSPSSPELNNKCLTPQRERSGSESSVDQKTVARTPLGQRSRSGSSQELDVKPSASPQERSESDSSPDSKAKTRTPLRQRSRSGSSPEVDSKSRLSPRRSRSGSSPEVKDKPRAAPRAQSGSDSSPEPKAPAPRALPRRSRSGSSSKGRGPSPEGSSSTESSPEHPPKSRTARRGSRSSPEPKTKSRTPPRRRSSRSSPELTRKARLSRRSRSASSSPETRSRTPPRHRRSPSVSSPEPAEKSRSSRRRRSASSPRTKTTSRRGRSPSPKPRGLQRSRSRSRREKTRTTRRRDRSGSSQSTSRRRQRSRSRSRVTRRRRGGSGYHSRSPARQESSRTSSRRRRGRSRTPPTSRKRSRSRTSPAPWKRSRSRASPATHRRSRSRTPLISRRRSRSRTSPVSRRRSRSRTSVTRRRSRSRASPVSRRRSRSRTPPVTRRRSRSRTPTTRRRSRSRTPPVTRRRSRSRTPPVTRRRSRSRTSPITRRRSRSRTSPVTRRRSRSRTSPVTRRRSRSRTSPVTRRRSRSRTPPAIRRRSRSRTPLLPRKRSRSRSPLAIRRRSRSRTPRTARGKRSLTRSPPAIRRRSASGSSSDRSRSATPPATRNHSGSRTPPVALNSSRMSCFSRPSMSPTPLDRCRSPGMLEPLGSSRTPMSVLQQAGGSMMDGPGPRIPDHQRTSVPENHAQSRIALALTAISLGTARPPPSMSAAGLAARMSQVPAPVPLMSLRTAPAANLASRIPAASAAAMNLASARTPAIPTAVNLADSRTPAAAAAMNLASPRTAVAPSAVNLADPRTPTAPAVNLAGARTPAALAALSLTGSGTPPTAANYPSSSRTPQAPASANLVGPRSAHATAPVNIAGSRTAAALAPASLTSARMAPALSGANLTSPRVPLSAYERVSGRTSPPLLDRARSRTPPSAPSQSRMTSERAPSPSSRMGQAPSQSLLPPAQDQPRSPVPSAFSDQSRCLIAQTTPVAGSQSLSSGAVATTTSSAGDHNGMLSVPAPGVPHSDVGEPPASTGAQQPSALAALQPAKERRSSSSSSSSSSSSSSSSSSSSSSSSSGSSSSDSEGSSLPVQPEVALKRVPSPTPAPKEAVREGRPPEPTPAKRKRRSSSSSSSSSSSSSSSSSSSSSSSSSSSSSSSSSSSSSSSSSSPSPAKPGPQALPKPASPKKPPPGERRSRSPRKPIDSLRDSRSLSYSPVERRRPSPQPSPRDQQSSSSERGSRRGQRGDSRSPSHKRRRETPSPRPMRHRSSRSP

The test concerns the target SRSF1 fused to the AP or the EX fragment of APEX2 (split-APEX fusion) (UniProt Q07955). The test can be described thus: split reporter; split-APEX: AP and EX fusions co-transfected into HEK293T cells, both combinations of each pair; biotin tyramide 500 uM 30 min, H2O2 1 mM 1 min; cells lysed in 8 M urea; biotinylation detected by Western blotting with dye-labelled streptavidin.

Take “SRRM2 fused to the AP or the EX fragment of APEX2 (from UniProt Q9UQ35 1-2752)”: the binding result is “binds”.

B1: DHX38 fused to the AP or the EX fragment of APEX2 (protein, UniProt Q92620 1-1227)
chain: MGDTSEDASIHRLEGTDLDCQVGGLICKSKSAASEQHVFKAPAPRPSLLGLDLLASLKRREREEKDDGEDKKKSKVSSYKDWEESKDDQKDAEEEGGDQAGQNIRKDRHYRSARVETPSHPGGVSEEFWERSRQRERERREHGVYASSKEEKDWKKEKSRDRDYDRKRDRDERDRSRHSSRSERDGGSERSSRRNEPESPRHRPKDAATPSRSTWEEEDSGYGSSRRSQWESPSPTPSYRDSERSHRLSTRDRDRSVRGKYSDDTPLPTPSYKYNEWADDRRHLGSTPRLSRGRGRREEGEEGISFDTEEERQQWEDDQRQADRDWYMMDEGYDEFHNPLAYSSEDYVRRREQHLHKQKQKRISAQRRQINEDNERWETNRMLTSGVVHRLEVDEDFEEDNAAKVHLMVHNLVPPFLDGRIVFTKQPEPVIPVKDATSDLAIIARKGSQTVRKHREQKERKKAQHKHWELAGTKLGDIMGVKKEEEPDKAVTEDGKVDYRTEQKFADHMKRKSEASSEFAKKKSILEQRQYLPIFAVQQELLTIIRDNSIVIVVGETGSGKTTQLTQYLHEDGYTDYGMIGCTQPRRVAAMSVAKRVSEEMGGNLGEEVGYAIRFEDCTSENTLIKYMTDGILLRESLREADLDHYSAIIMDEAHERSLNTDVLFGLLREVVARRSDLKLIVTSATMDAEKFAAFFGNVPIFHIPGRTFPVDILFSKTPQEDYVEAAVKQSLQVHLSGAPGDILIFMPGQEDIEVTSDQIVEHLEELENAPALAVLPIYSQLPSDLQAKIFQKAPDGVRKCIVATNIAETSLTVDGIMFVIDSGYCKLKVFNPRIGMDALQIYPISQANANQRSGRAGRTGPGQCFRLYTQSAYKNELLTTTVPEIQRTNLANVVLLLKSLGVQDLLQFHFMDPPPEDNMLNSMYQLWILGALDNTGGLTSTGRLMVEFPLDPALSKMLIVSCDMGCSSEILLIVSMLSVPAIFYRPKGREEESDQIREKFAVPESDHLTYLNVYLQWKNNNYSTIWCNDHFIHAKAMRKVREVRAQLKDIMVQQRMSLASCGTDWDIVRKCICAAYFHQAAKLKGIGEYVNIRTGMPCHLHPTSSLFGMGYTPDYIVYHELVMTTKEYMQCVTAVDGEWLAELGPMFYSVKQAGKSRQENRRRAKEEASAMEEEMALAEEQLRARRQEQEKRSPLGSVRSTKIYTPGRKEQGEPMTPRRTPARFGL
For B1, the binding entry is “binds”.

B2: DDX46 fused to the AP or the EX fragment of APEX2 (protein, UniProt Q7L014 1-1031)
chain: MGRESRHYRKRSASRGRSGSRSRSRSPSDKRSKRGDDRRSRSRDRDRRRERSRSRDKRRSRSRDRKRLRRSRSRERDRSRERRRSRSRDRRRSRSRSRGRRSRSSSPGNKSKKTENRSRSKEKTDGGESSKEKKKDKDDKEDEKEKDAGNFDQNKLEEEMRKRKERVEKWREEQRKKAMENIGELKKEIEEMKQGKKWSLEDDDDDEDDPAEAEKEGNEMEGEELDPLDAYMEEVKEEVKKFNMRSVKGGGGNEKKSGPTVTKVVTVVTTKKAVVDSDKKKGELMENDQDAMEYSSEEEEVDLQTALTGYQTKQRKLLEPVDHGKIEYEPFRKNFYVEVPELAKMSQEEVNVFRLEMEGITVKGKGCPKPIKSWVQCGISMKILNSLKKHGYEKPTPIQTQAIPAIMSGRDLIGIAKTGSGKTIAFLLPMFRHIMDQRSLEEGEGPIAVIMTPTRELALQITKECKKFSKTLGLRVVCVYGGTGISEQIAELKRGAEIIVCTPGRMIDMLAANSGRVTNLRRVTYVVLDEADRMFDMGFEPQVMRIVDNVRPDRQTVMFSATFPRAMEALARRILSKPIEVQVGGRSVVCSDVEQQVIVIEEEKKFLKLLELLGHYQESGSVIIFVDKQEHADGLLKDLMRASYPCMSLHGGIDQYDRDSIINDFKNGTCKLLVATSVAARGLDVKHLILVVNYSCPNHYEDYVHRAGRTGRAGNKGYAYTFITEDQARYAGDIIKALELSGTAVPPDLEKLWSDFKDQQKAEGKIIKKSSGFSGKGFKFDETEQALANERKKLQKAALGLQDSDDEDAAVDIDEQIESMFNSKKRVKDMAAPGTSSVPAPTAGNAEKLEIAKRLALRINAQKNLGIESQDVMQQATNAILRGGTILAPTVSAKTIAEQLAEKINAKLNYVPLEKQEEERQDGGQNESFKRYEEELEINDFPQTARWKVTSKEALQRISEYSEAAITIRGTYFPPGKEPKEGERKIYLAIESANELAVQKAKAEITRLIKEELIRLQNSYQPTNKGRYKVL
On to B2, for which the binding entry is reported as “binds”.

B3: DHX16 fused to the AP or the EX fragment of APEX2 (protein, UniProt O60231 1-1041)
chain: MATPAGLERWVQDELHSVLGLSERHVAQFLIGTAQRCTSAEEFVQRLRDTDTLDLSGPARDFALRLWNKVPRKAVVEKPARAAEREARALLEKNRSYRLLEDSEESSEETVSRAGSSLQKKRKKRKHLRKKREEEEEEEASEKGKKKTGGSKQQTEKPESEDEWERTERERLQDLEERDAFAERVRQRDKDRTRNVLERSDKKAYEEAQKRLKMAEEDRKAMVPELRKKSRREYLAKREREKLEDLEAELADEEFLFGDVELSRHERQELKYKRRVRDLAREYRAAGEQEKLEATNRYHMPKETRGQPARAVDLVEEESGAPGEEQRRWEEARLGAASLKFGARDAASQEPKYQLVLEEEETIEFVRATQLQGDEEPSAPPTSTQAQQKESIQAVRRSLPVFPFREELLAAIANHQVLIIEGETGSGKTTQIPQYLFEEGYTNKGMKIACTQPRRVAAMSVAARVAREMGVKLGNEVGYSIRFEDCTSERTVLRYMTDGMLLREFLSEPDLASYSVVMVDEAHERTLHTDILFGLIKDVARFRPELKVLVASATMDTARFSTFFDDAPVFRIPGRRFPVDIFYTKAPEADYLEACVVSVLQIHVTQPPGDILVFLTGQEEIEAACEMLQDRCRRLGSKIRELLVLPIYANLPSDMQARIFQPTPPGARKVVVATNIAETSLTIEGIIYVLDPGFCKQKSYNPRTGMESLTVTPCSKASANQRAGRAGRVAAGKCFRLYTAWAYQHELEETTVPEIQRTSLGNVVLLLKSLGIHDLMHFDFLDPPPYETLLLALEQLYALGALNHLGELTTSGRKMAELPVDPMLSKMILASEKYSCSEEILTVAAMLSVNNSIFYRPKDKVVHADNARVNFFLPGGDHLVLLNVYTQWAESGYSSQWCYENFVQFRSMRRARDVREQLEGLLERVEVGLSSCQGDYIRVRKAITAGYFYHTARLTRSGYRTVKQQQTVFIHPNSSLFEQQPRWLLYHELVLTTKEFMRQVLEIESSWLLEVAPHYYKAKELEDPHAKKMPKKIGKTREELG
For the molecule B3, the binding result is reported as “binds”.

B4: DDX23 fused to the AP or the EX fragment of APEX2 (protein, UniProt Q9BUQ8 1-820)
chain: MAGELADKKDRDASPSKEERKRSRTPDRERDRDRDRKSSPSKDRKRHRSRDRRRGGSRSRSRSRSKSAERERRHKERERDKERDRNKKDRDRDKDGHRRDKDRKRSSLSPGRGKDFKSRKDRDSKKDEEDEHGDKKPKAQPLSLEELLAKKKAEEEAEAKPKFLSKAEREAEALKRRQQEVEERQRMLEEERKKRKQFQDLGRKMLEDPQERERRERRERMERETNGNEDEEGRQKIREEKDKSKELHAIKERYLGGIKKRRRTRHLNDRKFVFEWDASEDTSIDYNPLYKERHQVQLLGRGFIAGIDLKQQKREQSRFYGDLMEKRRTLEEKEQEEARLRKLRKKEAKQRWDDRHWSQKKLDEMTDRDWRIFREDYSITTKGGKIPNPIRSWKDSSLPPHILEVIDKCGYKEPTPIQRQAIPIGLQNRDIIGVAETGSGKTAAFLIPLLVWITTLPKIDRIEESDQGPYAIILAPTRELAQQIEEETIKFGKPLGIRTVAVIGGISREDQGFRLRMGCEIVIATPGRLIDVLENRYLVLSRCTYVVLDEADRMIDMGFEPDVQKILEHMPVSNQKPDTDEAEDPEKMLANFESGKHKYRQTVMFTATMPPAVERLARSYLRRPAVVYIGSAGKPHERVEQKVFLMSESEKRKKLLAILEQGFDPPIIIFVNQKKGCDVLAKSLEKMGYNACTLHGGKGQEQREFALSNLKAGAKDILVATDVAGRGIDIQDVSMVVNYDMAKNIEDYIHRIGRTGRAGKSGVAITFLTKEDSAVFYELKQAILESPVSSCPPELANHPDAQHKPGTILTKKRREETIFA
Consider B4, for which the binding entry is on record as “binds”.

B5: DHX8 fused to the AP or the EX fragment of APEX2 (protein, UniProt Q14562 1-1220)
chain: MAVAVAMAGALIGSEPGPAEELAKLEYLSLVSKVCTELDNHLGINDKDLAEFVISLAEKNTTFDTFKASLVKNGAEFTDSLISNLLRLIQTMRPPAKPSTSKDPVVKPKTEKEKLKELFPVLCQPDNPSVRTMLDEDDVKVAVDVLKELEALMPSAAGQEKQRDAEHRDRTKKKKRSRSRDRNRDRDRDRERNRDRDHKRRHRSRSRSRSRTRERNKVKSRYRSRSRSQSPPKDRKDRDKYGERNLDRWRDKHVDRPPPEEPTIGDIYNGKVTSIMQFGCFVQLEGLRKRWEGLVHISELRREGRVANVADVVSKGQRVKVKVLSFTGTKTSLSMKDVDQETGEDLNPNRRRNLVGETNEETSMRNPDRPTHLSLVSAPEVEDDSLERKRLTRISDPEKWEIKQMIAANVLSKEEFPDFDEETGILPKVDDEEDEDLEIELVEEEPPFLRGHTKQSMDMSPIKIVKNPDGSLSQAAMMQSALAKERRELKQAQREAEMDSIPMGLNKHWVDPLPDAEGRQIAANMRGIGMMPNDIPEWKKHAFGGNKASYGKKTQMSILEQRESLPIYKLKEQLVQAVHDNQILIVIGETGSGKTTQITQYLAEAGYTSRGKIGCTQPRRVAAMSVAKRVSEEFGCCLGQEVGYTIRFEDCTSPETVIKYMTDGMLLRECLIDPDLTQYAIIMLDEAHERTIHTDVLFGLLKKTVQKRQDMKLIVTSATLDAVKFSQYFYEAPIFTIPGRTYPVEILYTKEPETDYLDASLITVMQIHLTEPPGDILVFLTGQEEIDTACEILYERMKSLGPDVPELIILPVYSALPSEMQTRIFDPAPPGSRKVVIATNIAETSLTIDGIYYVVDPGFVKQKVYNSKTGIDQLVVTPISQAQAKQRAGRAGRTGPGKCYRLYTERAYRDEMLTTNVPEIQRTNLASTVLSLKAMGINDLLSFDFMDAPPMETLITAMEQLYTLGALDDEGLLTRLGRRMAEFPLEPMLCKMLIMSVHLGCSEEMLTIVSMLSVQNVFYRPKDKQALADQKKAKFHQTEGDHLTLLAVYNSWKNNKFSNPWCYENFIQARSLRRAQDIRKQMLGIMDRHKLDVVSCGKSTVRVQKAICSGFFRNAAKKDPQEGYRTLIDQQVVYIHPSSALFNRQPEWVVYHELVLTTKEYMREVTTIDPRWLVEFAPAFFKVSDPTKLSKQKKQQRLEPLYNRYEEPNAWRISRAFRRR
As for B5, the binding result is “binds”.

The values above are taken from paper PMC12757297.
